Assay results as given in PubChem BioAssay AID256 (DTP/NCI, 2004).
The list does not hold the whole screen: it covers a few groups of compounds. Other doses and runs of a compound may be missing. T/C is the treated group as % of the vehicle group. Some doses have a count of surviving animals in place of a T/C: the source files T/C as zero there, which appears to mark a toxic dose or a test without result, not a measured value. Some survivor counts are full or nearly so, which does not show that the dose was tolerated: survival well below the control is almost never listed, so the zero probably covers shortened survival too. Survivors were counted at the toxicity check, usually on the fifth day, unless a day is given; later deaths do not show. Schedules are NCI's codes, read here as Q, the interval in days (D) or hours (H), X, the number of doses. For survival time, this PubChem deposit counts one and a half times the control or more as active, and values a quarter to a half above the control carry no call in these data; other NCI protocols may use other cut-offs. Some T/C values are marked as having no survivor count here; that says nothing about deaths at the dose. Marks such as (2×) give the number of equal values in this list. Some doses were run more than once; their values stand side by side, smallest first. Some T/C values carry the count of animals alive at the toxicity check (mostly the fifth day); where neither a count nor a note follows, no animal had died by that day.

Tested on: CD2F1 mice, L1210 leukemia ip, survival T/C
Assay: NCI In Vivo Anticancer Drug Screen. Data for tumor model L1210 Leukemia (intraperitoneal) in CD2F1 (CDF1) mice
Conditions: higher T/C = longer survival
Method in brief: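 Transplantable tumor in mice; compound-treated vs vehicle-treated groups. Read-out = treated/control ratio of the measured endpoint.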

[1] = T/C endpoint: mean survival time, dose: 3.12 mg/kg/injection, schedule: Q01DX009 (ip), vehicle: Klucel (hydroxypropylcellulose) (HPC)
[2] = T/C endpoint: mean survival time, dose: 6.25 mg/kg/injection, schedule: Q01DX009 (ip), vehicle: Klucel (hydroxypropylcellulose) (HPC)
[3] = T/C endpoint: mean survival time, dose: 12.5 mg/kg/injection, schedule: Q01DX009 (ip), vehicle: Klucel (hydroxypropylcellulose) (HPC)
[4] = T/C endpoint: mean survival time, dose: 25.0 mg/kg/injection, schedule: Q01DX009 (ip), vehicle: Klucel (hydroxypropylcellulose) (HPC)
[5] = T/C endpoint: mean survival time, dose: 50.0 mg/kg/injection, schedule: Q01DX009 (ip), vehicle: Klucel (hydroxypropylcellulose) (HPC)
[6] = T/C endpoint: mean survival time, dose: 100.0 mg/kg/injection, schedule: Q01DX009 (ip), vehicle: Klucel (hydroxypropylcellulose) (HPC)

## CC1CC(C)OP(=O)(N(CCCl)CCCl)N1 (centres undefined)
T/C endpoint: mean survival time, dose: 15.63 mg/kg/injection, schedule: Q01DX001 (ip), vehicle: distilled water + Tween-80
  T/C: 96 % of control [survivor count not shown]
T/C endpoint: mean survival time, dose: 15.63 mg/kg/injection, schedule: Q01DX001 (ip), vehicle: water, evaluated on day 30
  T/C: 102 % of control
T/C endpoint: mean survival time, dose: 15.63 mg/kg/injection, schedule: Q01DX001 (ip), vehicle: water, evaluation day not shown
  T/C: 94 [survivor count not shown] and 100 % of control [survivor count not shown]
T/C endpoint: mean survival time, dose: 31.25 mg/kg/injection, schedule: Q01DX001 (ip), vehicle: distilled water + Tween-80
  T/C: 100 % of control [survivor count not shown]
T/C endpoint: mean survival time, dose: 31.25 mg/kg/injection, schedule: Q01DX001 (ip), vehicle: water, evaluated on day 30
  T/C: 97 % of control
T/C endpoint: mean survival time, dose: 31.25 mg/kg/injection, schedule: Q01DX001 (ip), vehicle: water, evaluation day not shown
  T/C: 98 % of control [survivor count not shown] (2×)
T/C endpoint: mean survival time, dose: 62.5 mg/kg/injection, schedule: Q01DX001 (ip), vehicle: distilled water + Tween-80
  T/C: 104 % of control [survivor count not shown]
T/C endpoint: mean survival time, dose: 62.5 mg/kg/injection, schedule: Q01DX001 (ip), vehicle: water, evaluated on day 30
  T/C: 92 % of control
T/C endpoint: mean survival time, dose: 62.5 mg/kg/injection, schedule: Q01DX001 (ip), vehicle: water, evaluation day not shown
  T/C: 111 [survivor count not shown] and 117 % of control [survivor count not shown]
T/C endpoint: mean survival time, dose: 125.0 mg/kg/injection, schedule: Q01DX001 (ip), vehicle: distilled water + Tween-80
  T/C: 110 % of control [survivor count not shown]
T/C endpoint: mean survival time, dose: 125.0 mg/kg/injection, schedule: Q01DX001 (ip), vehicle: water, evaluated on day 30
  T/C: 112 % of control
T/C endpoint: mean survival time, dose: 125.0 mg/kg/injection, schedule: Q01DX001 (ip), vehicle: water, evaluation day not shown
  T/C: 102 [survivor count not shown] and 111 % of control [survivor count not shown]
T/C endpoint: mean survival time, dose: 250.0 mg/kg/injection, schedule: Q01DX001 (ip), vehicle: distilled water + Tween-80
  T/C: 122 % of control [survivor count not shown]
T/C endpoint: mean survival time, dose: 250.0 mg/kg/injection, schedule: Q01DX001 (ip), vehicle: water, evaluated on day 30
  T/C: 126 % of control
T/C endpoint: mean survival time, dose: 250.0 mg/kg/injection, schedule: Q01DX001 (ip), vehicle: water, evaluation day not shown
  T/C: 94 [survivor count not shown] and 115 % of control [survivor count not shown]
T/C endpoint: mean survival time, dose: 500.0 mg/kg/injection, schedule: Q01DX001 (ip), vehicle: water
  survivor count: 0 of 6

## CC(C)NP(=S)(Cl)Cl
T/C endpoint: mean survival time, dose: 12.5 mg/kg/injection, schedule: Q01DX009 (ip), vehicle: saline with Tween-80
  T/C: 106 % of control [survivor count not shown]
T/C endpoint: mean survival time, dose: 12.5 mg/kg/injection, schedule: Q04DX003 (ip), vehicle: saline
  T/C: 97 % of control [survivor count not shown]
T/C endpoint: mean survival time, dose: 25.0 mg/kg/injection, schedule: Q01DX009 (ip), vehicle: saline with Tween-80
  T/C: 98 % of control [survivor count not shown]
T/C endpoint: mean survival time, dose: 25.0 mg/kg/injection, schedule: Q04DX003 (ip), vehicle: saline
  T/C: 101 % of control [survivor count not shown]
T/C endpoint: mean survival time, dose: 50.0 mg/kg/injection, schedule: Q01DX009 (ip), vehicle: saline with Tween-80
  T/C: 98 % of control [survivor count not shown]
T/C endpoint: mean survival time, dose: 50.0 mg/kg/injection, schedule: Q04DX003 (ip), vehicle: saline
  T/C: 97 % of control [survivor count not shown]

## ClCCN(CCCl)Cc1nc2ccccc2[nH]1
T/C endpoint: mean survival time, dose: 2.5 mg/kg/injection, schedule: Q01DX007 (ip), vehicle: saline
  T/C: 117 % of control [survivor count not shown]
T/C endpoint: mean survival time, dose: 2.5 mg/kg/injection, schedule: Q01DX009 (ip), vehicle: saline
  T/C: 116 [survivor count not shown], 118 [survivor count not shown], 133 % of control [survivor count not shown]
T/C endpoint: mean survival time, dose: 2.5 mg/kg/injection, schedule: Q03DX003 (ip), vehicle: saline
  T/C: 115 % of control [survivor count not shown]
T/C endpoint: mean survival time, dose: 5.0 mg/kg/injection, schedule: Q01DX007 (ip), vehicle: saline
  T/C: 119 % of control [survivor count not shown]
T/C endpoint: mean survival time, dose: 5.0 mg/kg/injection, schedule: Q01DX009 (ip), vehicle: saline
  T/C: 121 [survivor count not shown], 125 [survivor count not shown], 147 % of control [survivor count not shown]
T/C endpoint: mean survival time, dose: 5.0 mg/kg/injection, schedule: Q03DX003 (ip), vehicle: saline
  T/C: 117 % of control [survivor count not shown]
T/C endpoint: mean survival time, dose: 5.0 mg/kg/injection, schedule: Q04DX003 (ip), vehicle: saline
  T/C: 110 % of control [survivor count not shown]
T/C endpoint: mean survival time, dose: 10.0 mg/kg/injection, schedule: Q01DX007 (ip), vehicle: saline
  T/C: 153 % of control [survivor count not shown]
T/C endpoint: mean survival time, dose: 10.0 mg/kg/injection, schedule: Q01DX009 (ip), vehicle: saline
  T/C: 118 [survivor count not shown], 136 [survivor count not shown], 176 % of control [survivor count not shown]
T/C endpoint: mean survival time, dose: 10.0 mg/kg/injection, schedule: Q03DX003 (ip), vehicle: saline
  T/C: 128 % of control [survivor count not shown]
T/C endpoint: mean survival time, dose: 10.0 mg/kg/injection, schedule: Q04DX003 (ip), vehicle: saline
  T/C: 135 % of control [survivor count not shown]

## COc1ccc(N(CCCl)CCCl)cc1
[1]
  T/C: 103 % of control [survivor count not shown]
[2]
  T/C: 108 [survivor count not shown] and 112 % of control [survivor count not shown]
[3]
  T/C: 108 [survivor count not shown] and 116 % of control [survivor count not shown]
[4]
  T/C: 113 [survivor count not shown] and 122 % of control [survivor count not shown]
[5]
  T/C: 96 [survivor count not shown] and 108 % of control [survivor count not shown]
[6]
  T/C: 89 % of control [survivor count not shown]

## Nc1cc(N)cc(N(CCCl)CCCl)c1
T/C endpoint: mean survival time, dose: 2.5 mg/kg/injection, schedule: Q01DX009 (ip), vehicle: Klucel (hydroxypropylcellulose) (HPC)
  T/C: 103 % of control [survivor count not shown]
T/C endpoint: mean survival time, dose: 5.0 mg/kg/injection, schedule: Q01DX009 (ip), vehicle: Klucel (hydroxypropylcellulose) (HPC)
  T/C: 105 % of control [survivor count not shown]
T/C endpoint: mean survival time, dose: 10.0 mg/kg/injection, schedule: Q01DX009 (ip), vehicle: Klucel (hydroxypropylcellulose) (HPC)
  T/C: 90 % of control [survivor count not shown]

## O=P1(N(CCCl)CCCl)NCc2ccccc2N1 (centres undefined)
T/C endpoint: mean survival time, dose: 31.8 mg/kg/injection, schedule: Q01DX001 (ip), vehicle: other
  T/C: 102 % of control [survivor count not shown]
T/C endpoint: mean survival time, dose: 62.5 mg/kg/injection, schedule: Q01DX001 (ip), vehicle: other
  T/C: 100 % of control [survivor count not shown]
T/C endpoint: mean survival time, dose: 125.0 mg/kg/injection, schedule: Q01DX001 (ip), vehicle: other
  T/C: 92 % of control [survivor count not shown]
T/C endpoint: mean survival time, dose: 250.0 mg/kg/injection, schedule: Q01DX001 (ip), vehicle: other
  T/C: 93 % of control [survivor count not shown]
T/C endpoint: mean survival time, dose: 500.0 mg/kg/injection, schedule: Q01DX001 (ip), vehicle: other
  T/C: 96 % of control [survivor count not shown]

## Cc1ccc(N(CCBr)CCBr)cc1
[1]
  T/C: 120 % of control
[2]
  T/C: 106 % of control
[3]
  survivor count: 6 of 6
[4]
  survivor count: 6 of 6
[5]
  survivor count: 3 of 6
[6]
  survivor count: 0 of 6
T/C endpoint: median survival time, dose: 3.12 mg/kg/injection, schedule: Q01DX009 (ip), vehicle: Klucel (hydroxypropylcellulose) (HPC)
  T/C: 121 % of control [9 of 10 alive]
T/C endpoint: median survival time, dose: 6.25 mg/kg/injection, schedule: Q01DX009 (ip), vehicle: Klucel (hydroxypropylcellulose) (HPC)
  T/C: 98 % of control
T/C endpoint: median survival time, dose: 12.5 mg/kg/injection, schedule: Q01DX009 (ip), vehicle: Klucel (hydroxypropylcellulose) (HPC)
  survivor count: 9 of 10
T/C endpoint: median survival time, dose: 25.0 mg/kg/injection, schedule: Q01DX009 (ip), vehicle: Klucel (hydroxypropylcellulose) (HPC)
  survivor count: 9 of 10
T/C endpoint: median survival time, dose: 50.0 mg/kg/injection, schedule: Q01DX009 (ip), vehicle: Klucel (hydroxypropylcellulose) (HPC)
  survivor count: 1 of 10
T/C endpoint: median survival time, dose: 100.0 mg/kg/injection, schedule: Q01DX009 (ip), vehicle: Klucel (hydroxypropylcellulose) (HPC)
  survivor count: 0 of 10

## Cc1ccc(N(CCCl)CCCl)cc1
[2]
  T/C: 103 % of control [survivor count not shown]
[3]
  T/C: 106 % of control [survivor count not shown]
[4]
  T/C: 108 % of control [survivor count not shown]
[5]
  T/C: 103 % of control [survivor count not shown]
[6]
  T/C: 105 % of control [survivor count not shown]
